Laboratory results: patent US20090148895

Biological target: T1, Cre recombinase (UniProt P06956)
T1 sequence (limits assumed): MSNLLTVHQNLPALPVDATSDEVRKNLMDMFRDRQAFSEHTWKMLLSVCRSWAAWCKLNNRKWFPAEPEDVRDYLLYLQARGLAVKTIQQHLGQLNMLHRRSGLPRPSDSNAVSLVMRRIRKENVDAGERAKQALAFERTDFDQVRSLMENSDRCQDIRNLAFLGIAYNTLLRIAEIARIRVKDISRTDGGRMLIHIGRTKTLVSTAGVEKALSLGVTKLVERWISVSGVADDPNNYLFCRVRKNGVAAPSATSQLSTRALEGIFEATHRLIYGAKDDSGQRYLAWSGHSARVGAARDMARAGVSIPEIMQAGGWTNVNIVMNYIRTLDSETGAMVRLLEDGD
Assay: activity in cells
Details: in S. cerevisiae chromosome 6, protein in cells, only the site is given

Sequence	activity on this sequence (inversion between inverted loxm2 pair and about 40 kb mini chromosome by loxm2 recombination, variant of loxP)	activity on this sequence (inversion between inverted loxP pair and about 18 kb mini chromosome by loxP recombination)
ATAACTTCGTATAAGAAACCATATACGAAGTTAT (double strand) [loxm2]	active	
ATAACTTCGTATAATGTATGCTATACGAAGTTAT (double strand) [loxP]		active

Where a protein sequence is shown, tags need not be part of it.
